Experimental data: PubChem BioAssay AID652272 (Drosophila RNAi Screening Center, 2013)

- Aim: 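Finding fly genes that regulate Hedgehog signal transduction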 (primary screen)
- Cell system: Drosophila clone 8 (Cl8) cells
- Reagent: long dsRNA against Drosophila genes
- Detection: 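Firefly light from a Hedgehog-responsive ptc promoter reporter and Renilla reference light, both read on a plate reader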
- Direction: firefly Hh reporter signal: higher = more ptc reporter light; Renilla reference signal: higher = more Renilla control light
- Hit rule: 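Called a hit if the two-replicate mean z-score lies below -2 or above +3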
- Meaning of the calls: active = hit: reporter lowered or raised; inactive = not a hit
The screen tested about 21,000 reagents; below is an unselected part of those that have a named target and a result. Over the whole deposit, 503 (2.4%) are marked active. 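Raw plate light values, not normalised; calls rest on replicate z-scores that were not deposited; hits include reporter decreases as well as increases.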 A number with no mark means an inactive call. The numbers tell different reagents against one gene apart. Names joined by + are all predicted targets of the reagent. Not stated in the record: the amount of reagent, the time to read-out.

no.	gene knocked down	reagent	firefly Hh reporter signal, replicate 1	firefly Hh reporter signal, replicate 2	firefly Hh reporter signal, replicate 3	Renilla reference signal, replicate 1	Renilla reference signal, replicate 2
1	Mst98Cb (Male-specific RNA 98Cb)	1	1.88e5	7.21e5	1.80e5	6676	5782
2	CG33060	1	88668			6000	2791
3	Cpr51A (Cuticular protein 51A)	1	83976	43621		2000	3881
4	lok (loki)	1	89218	85637		3548	3864
5	CG13137	1	91626	52731		2537	5208
6	Axud1 (AXIN1 up-regulated 1)	1	1.34e5	78177		2880	2133
7	CG14712	1	76329	43616		4016	2503
8	Lip1 (Lipase 1)	1	91440	30464		2461	4743
9	Dgk (Diacyl glycerol kinase)	1	66789	1.47e5		1969	6077
10	Dgk (Diacyl glycerol kinase)	2	1.22e5	2.02e5		3168	8612
11	Dgk (Diacyl glycerol kinase)	3	87453	64647		2099	5877
12	Dgk (Diacyl glycerol kinase)	4	1.31e5	8.32e5	82886	3737	47201
13	vap (vacuolar peduncle)	1	1.02e5	87745		2379	1889
14	cv (crossveinless)	1	65801	2.16e5		2346	8368
15	CG14659	1	1.23e5	1.29e5		3856	2288
16	sty (sprouty)	1	1.34e5	64980		4356	5882
17	CG13887	1	91610	90836		3531	3484
18	CG13280	1	79800	57046		2157	5954
19	CG18265	1	71221			5560	2588
20	CG30373	1	1.30e5	2.09e5		3683	10315
21	mei-217 + mei-218	1	74530	1.63e5		1431	6979
22	Gr36c (Gustatory receptor 36c)	1	91565	50241		2224	4425
23	Prosalpha7 (Proteasome alpha7 subunit)	1	37633	45893		3024	2564
24	dati (datilografo)	1	1.07e5	57600		2562	1717
25	dati (datilografo)	2	77857	2.05e5		2902	6764
26	dati (datilografo)	3	1.12e5	2.73e5		4162	10024
27	mTTF (mitochondrial transcription termination factor)	1	84598	46499		2164	4021
28	CG6686	1	58900	41397		3152	2824
29	Dop1R2 (Dopamine 1-like receptor 2)	1	46678	2.63e5		11235	6597
30	Dop1R2 (Dopamine 1-like receptor 2)	2	92652	77584		3114	2342
31	fabp + sea	1	1.04e5	1.04e5		4081	3826
32	fabp + sea	2	1.26e5	1.42e5		5297	5274
33	JMJD4 (Jumonji domain containing 4)	1	1.29e5	1.05e5		4571	4151

5 entries from above, ordered by “Renilla reference signal, replicate 1”, high to low:
gene knocked down	reagent	firefly Hh reporter signal, replicate 1	firefly Hh reporter signal, replicate 2	firefly Hh reporter signal, replicate 3	Renilla reference signal, replicate 1	Renilla reference signal, replicate 2
Dop1R2 (Dopamine 1-like receptor 2)	1	46678	2.63e5		11235	6597
dati (datilografo)	3	1.12e5	2.73e5		4162	10024
CG6686	1	58900	41397		3152	2824
dati (datilografo)	2	77857	2.05e5		2902	6764
mTTF (mitochondrial transcription termination factor)	1	84598	46499		2164	4021
